From PubChem BioAssay AID2098 (Broad Institute, 2009)
In all, about 300,000 compounds went through this assay and about 2,300 (0.77%) were called active. The inconclusive results got no clear call from the source; some entries with a clear call stand among them for comparison.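 How the source made its calls: active means more than half of replicate wells show activity change below -50%, luminescence cut by over half; inconclusive means some wells, but at most half, below -50%; inactive means no replicate well below -50%.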

assay: HSF1 inhibitors in luciferase reporter cells, primary screen, cell-based, NIH3T3, luminescence (AID 2098); settings: NIH3T3-HGL HSE-luciferase, MG132-induced, luminescence 8 h; hits give low values; screened at 7.5 µM (by protocol);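 further: luciferase reports HSF-1 transcriptional activity via heat shock element; 0% = median of DMSO wells and -100% = zero luminescence signal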

Structure (SMILES) | activity change, negative = inhibition
COCCn1c(C)cc(C(=O)COC(=O)c2ccc(Br)o2)c1C | inconclusive: -50.7%
CCOC(=O)c1ccc(Cl)c(NC(=O)c2cccnc2)c1 | inconclusive: -93.1%
COc1ccc(-c2csc3ncnc(N4CCN(c5cccc(OC)c5)CC4)c23)cc1 | inactive: 15.9%
O=C(NC1=NCCS1)c1cccc(OC(F)F)c1 | inactive: 10.6%
Oc1ccc(CN2CCCCC2)c2cccnc12 | inconclusive: -50.8%
Oc1[nH]c2ccccc2c1N=NC(=S)NCC1CCCO1 (stereo not given) | inconclusive: -48.6%
COc1ccc(-c2nnc(NC(=O)c3ccc(S(=O)(=O)N4COCC4(C)C)cc3)o2)cc1 | inconclusive: -53.1%
Cc1nc2ccc(NC(=O)N(C(C)C)C(C)C)cc2s1 | inactive: -39.3%
CCN1C(=O)CC(N2CCC(c3nc4ccccc4[nH]3)CC2)C1=O (stereo not given) | inactive: -1.76%
CC(C)(C)n1nnnc1C(c1ccc(Cl)cc1)N(Cc1cccnc1)Cc1ccco1 (stereo not given) | inconclusive: -33.8%
CCN1CC2([N+](=O)[O-])C=CC(=O)C([N+](=O)[O-])(C1)C2CC(=O)c1ccccc1 (stereo not given) | inconclusive: -50%
CCNc1nc(Oc2ccc(F)cc2)cc(C(F)(F)F)n1 | inconclusive: -66.6%
O=C(Nc1ccc(N2CCN(c3ccc(O)cc3)CC2)cc1)Oc1ccccc1 | inconclusive: -47.5%
CC1=C(C(=O)Nc2ccccc2)C(c2cc(CN3CCOCC3)cs2)C2=C(CCCC2=O)N1 (stereo not given) | inconclusive: -45.2%
CC(=O)c1cccc(NC(=O)C2CC(=O)N(CCc3ccccc3)C2)c1 (stereo not given) | active: -59.2%
C/C(Cc1ccccc1)=N/NC(=O)CNC(=O)C(c1ccccc1)c1ccccc1 | inconclusive: -47.9%
CCOC(=O)c1c(NC(=O)CNC2CCCc3ccccc32)sc(C(N)=O)c1C (stereo not given) | inconclusive: -60.2%
O=C(Nc1cccc(C(=O)O)c1)Nc1ccc2c(c1)OCO2 | inconclusive: -52.8%
Cc1ccc(-n2c(N)c(C(N)=O)sc2=S)c(C)c1 | inactive: 0.675%
C=CCOc1ccccc1CNc1ccc2c(c1)OCCO2 | inconclusive: -33.6%
O=C(NCc1ccccc1)C(c1ccco1)N(C(=O)c1cnccn1)c1ccc(F)cc1 (stereo not given) | inconclusive: -50.3%
COc1cc(CNC2CCCCCCC2)ccc1OCC(N)=O | inactive: -0.0794%
COc1cc(/C=C/c2nc(N)nc(-c3ccccc3O)n2)cc(OC)c1OC | inconclusive: -50.4%

Fetched by structure from the entries so far (six):
Structure (SMILES) | activity change, negative = inhibition
COc1ccc(-c2nnc(NC(=O)c3ccc(S(=O)(=O)N4COCC4(C)C)cc3)o2)cc1 | inconclusive: -53.1%
COc1cc(CNC2CCCCCCC2)ccc1OCC(N)=O | inactive: -0.0794%
COc1ccc(-c2csc3ncnc(N4CCN(c5cccc(OC)c5)CC4)c23)cc1 | inactive: 15.9%
COCCn1c(C)cc(C(=O)COC(=O)c2ccc(Br)o2)c1C | inconclusive: -50.7%
Cc1nc2ccc(NC(=O)N(C(C)C)C(C)C)cc2s1 | inactive: -39.3%
CC1=C(C(=O)Nc2ccccc2)C(c2cc(CN3CCOCC3)cs2)C2=C(CCCC2=O)N1 (stereo not given) | inconclusive: -45.2%

Additional records follow.

Structure (SMILES) | activity change, negative = inhibition
COc1ccccc1N1CCN(C(=S)Nc2cccc(C)c2)CC1 | inconclusive: -48.5%
CCc1cccc2c(C(=O)COC(=O)c3ccc([N+](=O)[O-])s3)c[nH]c12 | active: -68.8%
Nc1ncnc(Sc2ncccn2)c1[N+](=O)[O-] | inconclusive: -24.1%
CC(=O)Nc1ccc(Nc2nc(Cl)nc(Nc3ccc(NC(C)=O)cc3)n2)cc1 | inconclusive: -21.1%
CC(C)(C)c1ccc(Cn2c(=O)cnc3ccccc32)cc1 | active: -69.8%
NC(=O)COc1ccc(-n2cnnn2)cc1 | inconclusive: -51.1%
CCOC(=O)Cc1cnc(NC(=O)c2ccccc2)s1 | active: -54.1%
COc1cc(C2C(C#N)=C(N)N(N(C)C)C3=C2C(=O)CC(C)(C)C3)ccc1O (stereo not given) | active: -75.8%
BrC(=C\c1ccccc1)/C=N/n1cnnc1 | inconclusive: -28.5%
CC(=O)NC1=NN(C(C)=O)C(C)(c2ccccn2)S1 (stereo not given) | inconclusive: -28.8%
c1ccc(-c2nc3c4ccccc4ccn3c2CN2CCOCC2)cc1 | inactive: 7.08%
Cc1ccsc1C(=O)OCC(=O)N(C)c1c(N)n(Cc2ccccc2)c(=O)[nH]c1=O | inactive: -5.73%
O=C(N/N=C/c1ccc2c(c1)OCO2)c1cc(-c2ccccc2)nc2ccccc12 | inactive: -2.7%
N/C(=N\OC(=O)Cc1ccccc1[N+](=O)[O-])c1cccnc1 | inconclusive: -51.4%
Cc1onc(-c2ccccc2)c1C(=O)OCC(=O)Nc1cc(S(=O)(=O)N2CCOCC2)ccc1Cl | inactive: 10.7%
CSc1ccc(NC(=O)/C=C/C(=O)O)cc1 | inconclusive: -48.5%
Nc1nc(NCC2CCCO2)nc(Nc2ccc(F)cc2)c1[N+](=O)[O-] (stereo not given) | inactive: 0.474%
CC(C)NC(=O)NC(=O)CSc1nncs1 | inactive: -2.22%
N#C/C(=C\c1cc([N+](=O)[O-])c(N2CCOCC2)cc1N1CCOCC1)c1nc2ccccc2[nH]1 | inactive: 0.365%
CCc1nnc(NC(=O)CSc2nnc(-c3ccco3)n2CC)s1 | inconclusive: -34%
Cc1ccc(C(=O)Nc2ccccc2C(=O)O)cc1S(=O)(=O)Nc1ccccc1 | inconclusive: -51.3%
CCN1CCc2c(OCc3ccccc3)cccc2C1=O | inconclusive: -35.1%
CCOc1ccc(N2CC(C(=O)NCCc3c[nH]c4ccc(C)cc34)CC2=O)cc1 (stereo not given) | active: -57.6%

Structure (SMILES) | activity change, negative = inhibition
CN(C)c1ccc(/C=C2\SC(N3CCCCC3)=NC2=O)cc1 | inconclusive: -50.2%
O=C(Nc1nc(-c2cccs2)cs1)c1ccc(Cl)s1 | inconclusive: -48.1%
Cc1ccc(NC(=O)O/N=C/c2c(C)nn(C(C)(C)C)c2C)cc1Cl | active: -93.4%
Cc1nc2c(cc1C(=O)N/N=C/c1ccc(O)c(O)c1)c(=O)n(C)c(=O)n2C | active: -73%
CN(CC(=O)Nc1ccc(F)cc1)C(=O)COC(=O)c1cc(S(=O)(=O)N(C)C)ccc1N1CCCC1 | active: -68.2%
CCC(=O)NC(c1cccs1)c1cc(Cl)c2cccnc2c1O (stereo not given) | inconclusive: -54.1%
O=C(CCC(=O)NNC(=O)Nc1cccc(Cl)c1)NCc1ccccc1 | inactive: -8.57%
Cc1ccn2c(=O)nc(SCC(=O)NCc3ccccc3)nc2c1 | inconclusive: -26.9%
OCc1nn2c(c1Br)NC(c1ccccc1)CC2C(F)(F)F (stereo not given) | inconclusive: -50.9%
O=C(Nc1ccccc1OC(F)F)c1ccc(S(=O)(=O)N2CCOCC2)cc1 | inactive: 0.267%
Cc1nc2sccn2c(=O)c1S(=O)(=O)Nc1ccc(N2CCOCC2)c(Cl)c1 | inconclusive: -48.8%
COc1ccccc1C1=NOC(C)(c2sc(-c3ccc(Cl)cc3)nc2C)C1 (stereo not given) | inactive: 11.5%
Cc1ccc(CNC(=O)C2CC(c3ccccc3F)=NO2)cc1 (stereo not given) | inactive: -5.04%
Cc1cccc(NC(=O)c2sc(-c3ccccc3)nc2-c2ccc([N+](=O)[O-])cc2)c1 | inconclusive: -51.8%
CCOC(=O)c1cc(C#N)c(NCc2ccccc2)nc1C | active: -72.4%
Cc1cccc(CS(=O)(=O)c2nnc([C@H](Cc3ccccc3)NC(=O)OC(C)(C)C)o2)c1 | active: -67.5%
COc1cc(C(c2c(C)[nH][nH]c2=O)c2c(C)[nH][nH]c2=O)ccc1OCc1ccc([N+](=O)[O-])cc1 | inactive: 140%
Cc1cc(Cl)c(S(=O)(=O)Nc2ccc3c(c2)OCCO3)cc1OCC(N)=O | inconclusive: -44.3%
CC1CCN(S(=O)(=O)c2ccc(N=NC3=C(O)CC(C)(C)CC3=O)cc2)CC1 | inactive: 4.11%
C=CCn1c(C)cc(C2=NNC(=NCC)SC2)c1C | active: -77.6%
Cc1ccc(S(=O)(=O)N2CCC(C(=O)NNC(=O)c3ccccc3)CC2)cc1 | inactive: -10.3%
Cc1cccc(N(Cc2ccccc2)C(=O)CCl)c1 | inconclusive: -43.5%
CCCCCCCCC(=O)NC(NC(=S)N1CCOCC1)C(Cl)(Cl)Cl (stereo not given) | inactive: 2.7%

Structure (SMILES) | activity change, negative = inhibition
O=C(NCc1ccncc1)c1ccc(Cl)c(S(=O)(=O)N2CCOCC2)c1 | active: -76.3%
Oc1[nH]c2ccccc2c1N=Nc1nc(Nc2ccccc2)nc(N2CCOCC2)n1 | inconclusive: -45.9%
CCn1c(SCC(=O)N(C)C2CCS(=O)(=O)C2)nnc1-c1cccs1 (stereo not given) | inconclusive: -49.3%
CCn1c(C)nc2cc(C(=O)NNC(=S)Nc3ccccc3)ccc21 | active: -67%
N#C/C(=C\Nc1ccccc1O)c1nc2ccccc2o1 | inconclusive: -36.3%
CCOC(=O)c1sc(NC(=O)CCN2C(=O)c3ccccc3C2=O)c(C(=O)OCC)c1C | inactive: 1.1%
O=C(Nc1ccc(S(=O)(=O)N2CCOCC2)cc1)c1ccc(Cl)cc1Cl | active: -66.5%
NNC(=O)c1ccc(N2CCc3ccccc32)c([N+](=O)[O-])c1 | inconclusive: -28.2%
CCC(C)(C)NC(=S)Nc1ccc(-c2nc3ccc(C)cc3s2)cc1 | inactive: 3.68%
Cc1cc2oc3ccc(NCCC4CCCN4C)cc3c(=O)c2cc1C (stereo not given) | inactive: 6.14%
O=c1nc(N/N=C/c2c[nH]c3ccccc23)cn[nH]1 | inactive: 9.71%
O=C(Nc1nccs1)C(c1ccccc1)N1CCCCC1 (stereo not given) | inactive: -2.91%
COc1ccc(Cn2c(=O)c3[nH]cnc3n(-c3ccccc3C)c2=O)cc1 | inactive: -14.6%
NCCN1C(=O)S/C(=C\c2ccc3c(c2)OCO3)C1=O | inconclusive: -50.6%
O=Cc1ccc(O)c2ncccc12 | inconclusive: -49.7%
O=c1cc(-c2cccc([N+](=O)[O-])c2)[nH][nH]1 | inactive: -0.175%
O=C1C=C(NCCN2CCOCC2)C(=O)c2cnccc21 | inconclusive: -62.3%
CCOC(=O)C1CCN(c2c(NCc3ccc(C(=O)Nc4ccc(C)cc4)cc3)c(=O)c2=O)CC1 | active: -68.7%
O=C(O)c1ccc(NC2=C(Cl)C(=O)c3ccccc3C2=O)cc1 | inconclusive: -40.5%
CCCOc1ccc(/C(O)=C2/C(=O)C(=O)N(CCN(C)C)C2c2ccc(OC)c(OC)c2)cc1 (stereo not given) | inconclusive: -48.1%
Cc1ccsc1/C=N/NC(=O)c1cccnc1 | inactive: -0.0254%
